Test results as given in patent US20110064661A1, “NON-RADIOACTIVE PHOSPHOLIPID COMPOUNDS, COMPOSITIONS, AND METHODS OF USE” (priority 2009, published 2011).
For at least one compound, name, drawing or mass did not settle the structure.

Key:
active Akt (pAkt, S473) [1] = assay: Inhibition of Akt activation (pAkt Ser473 sandwich ELISA) in A549 cells; format: cell-based, human; details: 0-10 μM, FIG. 1
Experimental: A549 cells, obtained from American Type Culture Collection (ATCC), are a human non-small cell lung cancer cell line. A549 cells have wild-type functional PTEN.
(§1) A549 and PC-3 cells were plated at a density of 200,000 cells per ml.
(§2) All treatments were preformed in triplicate.
A549 and PC-3 cells are treated with ^127I-CLR1401 for 24 hours. • 0, 3, 5, 10 μM of ^127I-CLR1401 • Protein was isolated from treated cells. • The level of activated Akt was determined by examining the phosphorylated (active) form at Ser473 by enzyme linked immunosorbent assay (ELISA). • PathScan Phospho-Akt1 (Ser473) Sandwich ELISA Kit (Cell Signaling #7160). • ELISA controls: • Negative Control: A549 and PC-3 cells treated with 50 μM LY294,002 for 24 hrs. […] TMB (3,3″,5,5″-tetramethylbenzidine) is a chromogen that yields a blue color when oxidized with hydrogen peroxide (catalyzed by HRP) with major absorbances at 370 nm and 652 nm. The color then changes to yellow with the addition of sulfuric or phosphoric acid with maximum absorbance at 450 nm. it is used for the detection of target proteins that have been bound to an antibody that contains a Horseradish Peroxidase tag. • After the 10 minute incubation at 37° C. the reaction was stopped by the addition of stop buffer (also provided). The absorbance was then measured at 450 nm using a Synergy HT microplate reader (BioTek). […]

active Akt (pAkt, S473) [2] = assay: Inhibition of Akt activation (pAkt Ser473 sandwich ELISA) in PC-3 cells; format: cell-based, human; details: 0-10 μM, FIG. 2
Experimental: PC-3 cells, obtained from American Type Culture Collection (ATCC), are a human prostate carcinoma cell line. PC-3 cells have a homozygous deletion of PTEN.
as §1, §2
A549 and PC-3 cells are treated with ^127I-CLR1401 for 24 hours. • 0, 3, 5, 10 μM of ^127I-CLR1401 • Protein was isolated from treated cells. • The level of activated Akt was determined by examining the phosphorylated (active) form at Ser473 by enzyme linked immunosorbent assay (ELISA). • PathScan Phospho-Akt1 (Ser473) Sandwich ELISA Kit (Cell Signaling #7160). • ELISA controls: • Negative Control: A549 and PC-3 cells treated with 50 μM LY294,002 for 24 hrs. […] TMB (3,3″,5,5″-tetramethylbenzidine) is a chromogen that yields a blue color when oxidized with hydrogen peroxide (catalyzed by HRP) with major absorbances at 370 nm and 652 nm. The color then changes to yellow with the addition of sulfuric or phosphoric acid with maximum absorbance at 450 nm. it is used for the detection of target proteins that have been bound to an antibody that contains a Horseradish Peroxidase tag. • After the 10 minute incubation at 37° C. the reaction was stopped by the addition of stop buffer (also provided). The absorbance was then measured at 450 nm using a Synergy HT microplate reader (BioTek). Data are reported as absorbance at 450 nm.

A549 cells [3] = assay: Cell growth inhibition by MTT assay; format: cell-based, human
Experimental: 2. Cell Growth Inhibition by ^127I-CLR1401. • 1) Growth inhibition induced by ^127I-CLR1401 was determined by MTT(3-(4,5-dimethylthiazol-2-yl)-2,5-diphenyl […] bromide) assay. MTT is a pale yellow substrate that is cleaved by living cells to yield a dark blue formazan product.
Briefly, A549 cells were plated at a density of 200,000 cells per well in a six well plate and allowed to adhere overnight.
The cells were then treated with varying concentrations of ^127I-CLR1401 (0.0078, 0.392, 0.784, 1.568, 3.137, 4.705, 7.84, 39.2, 78.4 μM) in triplicate and then collected for the MTT assay at the indicated time points. Cells were then incubated with 0.5 mg/ml MTT in 1×PBS for 3 hours at 37° C. with 5% CO2 in air.
Absorbance was measured at 540 nm using a Synergy HT microplate reader. The absorbance value at 540 nm is directly proportional to the number of viable cells present.

A549 cells [4] = assay: Uptake and Retention Assay of 125I-CLR1404; format: cell-based, human; details: 24 hours, tracer 0.588 μM, total mass dose up to 2.156 μM
Experimental: The Uptake and Retention Assay was preformed as described previously. Briefly, A549 human NSCLC cells were plated at a density of 150,000 cells/ml in 6-well plates.
Cells were then allowed to adhere overnight. All plates were then treated with the indicated mass of either ^125I-CLR1404 with or without ^127I-CLR1401 as indicated by the experimental parameters.
Cells were incubated in the presence of drug for 24 hrs prior to collection. At 24 hrs post treatment, the media was removed and the cells were washed once with 1 ml of ice cold 1×PBS+1% BSA. The cells were then removed from the plate by trypsinization with 1 ml of 1× Trypsin 1×PBS solution and split into 2 samples of 500 μl each. Both sets of sample were pelleted by centrifugation for 30 seconds at 2000×g at room temperature. The supernatant was removed and discarded.
One pellet for each sample set was resuspended in 200 μl of 1×PBS (Tube 1, Sample 1), and the other pellet was resuspened in 100% EtOH (Tube 2, Sample 1). A 100 μl sample from Tube 1 was taken for evaluation of DNA content in order to determine cell number (data was generated using absorbance at 260 nm in a microplate reader). A 10 μl sample from Tube 2 was taken for evaluation of radioactivity content using a gamma counter. […] All treatments were preformed in Serum Free media. […]

[5] = system: A549 tumor (human non-small cell lung cancer); assay: A549 non-small cell lung cancer xenograft, tumor growth (Example 4); format: in vivo, athymic nude mice; details: 100×CLR1401 (380 μg per injection)
[6] = system: MDA-MB-231 tumors (human mammary adenocarcinoma); assay: MDA-MB-231 triple negative breast cancer xenograft, tumor growth and survival; format: in vivo, athymic nude mice; details: 100×CLR1401 (380 μg per injection) for 5 weeks, FIG. 13, P<0.001
[7] = system: A549 tumor (human non small cell lung cancer); assay: A549 xenograft, CLR1401 versus erlotinib (Example 6); format: in vivo, athymic nude mice

C[N+](C)(C)CCOP(=O)([O-])OCCCCCCCCCCCCCCCCCCc1ccc(I)cc1 [^127I-CLR1401, 18-(p-Iodophenyl)octadecyl phosphocholine]
amount of active Akt (pAkt, S473) levels with increasing doses (active Akt (pAkt, S473) [1]): dose-dependent decrease
amount of active Akt (pAkt, S473) levels with increasing doses (active Akt (pAkt, S473) [2]): dose-dependent decrease
effect on the growth of A549 cells (A549 cells [3]; high doses, FIG. 5C): statistically significant, dose-dependent effect
effect on the growth of A549 cells (A549 cells [3]; midrange doses, FIG. 5B): statistically significant, dose-dependent effect
effect of increasing 127I-CLR1401 on uptake and retention of tracer 125I-CLR1404 (A549 cells [4]): Increases Uptake and Retention of CLR1404
growth inhibition compared with the radioactive drug alone [5]: statistically similar
tumor growth ([5]; weekly for five weeks, FIG. 12): dramatically inhibits tumor growth in vivo
tumor growth [6]: dramatically inhibits tumor growth in vivo
efficacy versus Erlotinib monotherapy ([7]; 0.38 mg weekly vs erlotinib 0.25 mg i.p. daily for 3.5 weeks): superior to monotherapy of Erlotinib
tumor growth compared to saline or 0.25 mg Erlotinib ([7]; 100×CLR1401 (0.38 mg per animal) weekly i.v. for five weeks, FIG. 15, P<0.001): significantly inhibited tumor growth
